Results published in paper doi:10.1101/785154.
Like-named read-outs stand apart in the source and are kept apart here. These are yes or no findings as the source states them, for the method shown. In cells and extracts the contact can be indirect. Some results given as binding are weak or reduced against the parent protein; the word gives no strength. For some of these results: Tags and fused reporters may be left off the sequences shown. Values belong to the molecule of their own block, whether it stands above or below them.

By UniProt entry, the sequences of proteins in these tests, tags left out. Where a name states a change or a piece, a line headed by the entry shows the natural chain unless it says otherwise.
UniProt P35241: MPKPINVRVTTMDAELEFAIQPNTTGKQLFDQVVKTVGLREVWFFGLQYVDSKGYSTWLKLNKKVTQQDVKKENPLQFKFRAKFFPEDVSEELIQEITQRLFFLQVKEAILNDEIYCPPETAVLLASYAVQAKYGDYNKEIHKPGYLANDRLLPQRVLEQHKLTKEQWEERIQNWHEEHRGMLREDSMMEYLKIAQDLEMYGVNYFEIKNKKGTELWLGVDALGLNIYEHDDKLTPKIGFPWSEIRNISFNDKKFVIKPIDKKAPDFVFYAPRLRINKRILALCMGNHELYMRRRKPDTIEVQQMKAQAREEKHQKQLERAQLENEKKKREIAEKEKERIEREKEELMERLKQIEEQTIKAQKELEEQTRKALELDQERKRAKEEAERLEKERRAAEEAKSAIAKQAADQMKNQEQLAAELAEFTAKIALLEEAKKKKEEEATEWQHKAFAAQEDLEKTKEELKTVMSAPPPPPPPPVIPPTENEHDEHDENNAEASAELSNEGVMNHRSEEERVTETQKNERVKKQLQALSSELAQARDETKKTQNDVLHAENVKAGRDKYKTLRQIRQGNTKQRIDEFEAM
UniProt P26043: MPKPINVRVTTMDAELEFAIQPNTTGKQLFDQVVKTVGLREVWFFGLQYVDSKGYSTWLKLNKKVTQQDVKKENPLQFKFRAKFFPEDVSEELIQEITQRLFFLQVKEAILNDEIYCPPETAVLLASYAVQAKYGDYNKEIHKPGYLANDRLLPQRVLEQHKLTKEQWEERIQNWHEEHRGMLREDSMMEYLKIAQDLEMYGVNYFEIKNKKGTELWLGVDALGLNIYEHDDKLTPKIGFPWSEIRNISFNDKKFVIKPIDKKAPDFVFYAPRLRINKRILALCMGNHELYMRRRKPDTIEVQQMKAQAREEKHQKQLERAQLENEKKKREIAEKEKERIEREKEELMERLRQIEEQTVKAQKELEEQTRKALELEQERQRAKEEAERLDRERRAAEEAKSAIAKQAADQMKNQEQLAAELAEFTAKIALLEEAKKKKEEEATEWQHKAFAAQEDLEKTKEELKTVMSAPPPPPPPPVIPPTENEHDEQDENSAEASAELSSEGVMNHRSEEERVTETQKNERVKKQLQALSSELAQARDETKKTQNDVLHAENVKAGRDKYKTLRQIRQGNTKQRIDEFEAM

Assays:
[1] = biological target: T1, Prom1-Flag (full-length human Prom1) (human) (UniProt O43490); assay: co-IP
T1 sequence: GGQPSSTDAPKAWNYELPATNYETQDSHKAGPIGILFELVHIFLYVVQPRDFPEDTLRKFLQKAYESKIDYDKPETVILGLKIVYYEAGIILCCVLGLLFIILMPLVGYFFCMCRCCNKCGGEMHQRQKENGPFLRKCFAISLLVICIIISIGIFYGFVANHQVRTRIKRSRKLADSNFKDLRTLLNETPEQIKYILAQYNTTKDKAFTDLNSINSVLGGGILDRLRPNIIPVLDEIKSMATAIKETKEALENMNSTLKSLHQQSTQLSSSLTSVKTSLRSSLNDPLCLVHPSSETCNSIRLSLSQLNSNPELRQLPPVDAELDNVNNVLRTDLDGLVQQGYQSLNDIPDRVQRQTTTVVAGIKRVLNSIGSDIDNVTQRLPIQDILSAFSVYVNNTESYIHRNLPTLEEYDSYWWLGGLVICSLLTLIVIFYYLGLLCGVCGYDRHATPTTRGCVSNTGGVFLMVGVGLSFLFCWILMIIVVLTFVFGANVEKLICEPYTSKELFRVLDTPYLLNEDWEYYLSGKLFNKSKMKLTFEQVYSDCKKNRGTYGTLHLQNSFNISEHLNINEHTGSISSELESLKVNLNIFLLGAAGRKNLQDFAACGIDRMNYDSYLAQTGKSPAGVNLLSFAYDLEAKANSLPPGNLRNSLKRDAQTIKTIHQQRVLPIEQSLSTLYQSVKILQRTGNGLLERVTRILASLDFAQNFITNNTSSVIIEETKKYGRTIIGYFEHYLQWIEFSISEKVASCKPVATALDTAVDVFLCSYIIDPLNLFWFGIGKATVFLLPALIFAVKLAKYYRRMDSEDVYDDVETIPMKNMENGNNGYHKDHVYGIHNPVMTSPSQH

[2] = biological target: T1, Prom1-Flag (full-length human Prom1) (human); assay: co-IP; remark: listed apart in the source
[3] = biological target: T2, Prominin-1 (Prom1), endogenous in primary mouse hepatocytes (mouse (endogenous in primary hepatocytes)) (UniProt O54990); assay: co-IP
T2 sequence: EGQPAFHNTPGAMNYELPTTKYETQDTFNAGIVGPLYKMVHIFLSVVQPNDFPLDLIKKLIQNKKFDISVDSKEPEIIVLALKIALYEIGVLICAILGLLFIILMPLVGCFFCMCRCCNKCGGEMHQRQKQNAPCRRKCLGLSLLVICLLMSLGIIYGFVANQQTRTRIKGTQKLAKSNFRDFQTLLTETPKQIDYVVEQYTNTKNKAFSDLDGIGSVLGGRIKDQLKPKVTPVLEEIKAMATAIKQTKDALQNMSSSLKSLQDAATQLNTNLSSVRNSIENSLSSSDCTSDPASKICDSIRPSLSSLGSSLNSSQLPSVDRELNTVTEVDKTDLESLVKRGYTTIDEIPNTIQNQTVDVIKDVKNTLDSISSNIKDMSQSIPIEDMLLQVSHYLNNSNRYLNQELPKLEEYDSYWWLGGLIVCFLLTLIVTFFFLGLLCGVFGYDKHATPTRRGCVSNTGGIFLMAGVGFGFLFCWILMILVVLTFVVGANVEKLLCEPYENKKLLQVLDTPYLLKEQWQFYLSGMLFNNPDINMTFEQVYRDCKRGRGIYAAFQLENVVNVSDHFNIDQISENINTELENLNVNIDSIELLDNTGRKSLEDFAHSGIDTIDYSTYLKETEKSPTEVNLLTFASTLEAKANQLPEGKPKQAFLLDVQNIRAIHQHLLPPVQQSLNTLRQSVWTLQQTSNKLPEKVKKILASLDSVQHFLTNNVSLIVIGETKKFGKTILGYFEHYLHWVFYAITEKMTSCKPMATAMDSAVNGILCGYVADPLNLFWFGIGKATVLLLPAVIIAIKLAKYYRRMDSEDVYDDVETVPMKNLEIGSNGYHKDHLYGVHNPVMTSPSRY

[4] = biological target: T2, Prominin-1 (Prom1), endogenous in primary mouse hepatocytes (mouse (endogenous in primary hepatocytes)); assay: proximity ligation
[5] = biological target: T3, Prom1 expressed from adenovirus (Ad-Prom1) in Prom1-/- primary mouse hepatocytes (UniProt O43490); assay: proximity ligation
T3 sequence: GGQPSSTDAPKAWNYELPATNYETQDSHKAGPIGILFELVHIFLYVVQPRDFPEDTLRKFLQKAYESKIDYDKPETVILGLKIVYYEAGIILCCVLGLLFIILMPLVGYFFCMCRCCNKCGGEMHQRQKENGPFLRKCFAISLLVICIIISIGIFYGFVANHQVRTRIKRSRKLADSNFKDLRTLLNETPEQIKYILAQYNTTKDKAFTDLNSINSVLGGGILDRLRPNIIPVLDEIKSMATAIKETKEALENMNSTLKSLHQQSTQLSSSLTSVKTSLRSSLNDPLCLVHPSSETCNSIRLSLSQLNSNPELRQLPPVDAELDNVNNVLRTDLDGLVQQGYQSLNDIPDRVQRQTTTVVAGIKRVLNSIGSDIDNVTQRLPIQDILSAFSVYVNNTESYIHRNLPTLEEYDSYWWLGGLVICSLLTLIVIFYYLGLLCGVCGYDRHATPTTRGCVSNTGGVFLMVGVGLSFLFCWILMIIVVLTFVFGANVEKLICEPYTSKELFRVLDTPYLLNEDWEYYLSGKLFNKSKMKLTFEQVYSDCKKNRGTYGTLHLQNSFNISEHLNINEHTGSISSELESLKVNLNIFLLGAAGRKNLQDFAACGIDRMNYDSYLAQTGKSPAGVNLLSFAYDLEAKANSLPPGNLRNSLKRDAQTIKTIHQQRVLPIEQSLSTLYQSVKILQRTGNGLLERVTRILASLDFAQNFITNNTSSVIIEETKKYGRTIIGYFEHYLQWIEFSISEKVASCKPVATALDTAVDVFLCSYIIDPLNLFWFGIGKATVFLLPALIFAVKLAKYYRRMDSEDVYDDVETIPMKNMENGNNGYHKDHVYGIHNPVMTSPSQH

[6] = biological target: Myc-radixin (full-length human radixin) (human) (UniProt P35241); assay: co-IP

- binding [1]: binds
Molecule: Myc-FERM (FERM domain of radixin, 1-310) (from UniProt P35241 1-310) (domain or fragment)

- binding [1]: binds
- binding [2]: binds
Molecule: Myc-radixin (full-length human radixin) (from UniProt P35241 1-583)

- binding [3]: binds
- binding [4]: binds
- binding [5]: binds
Molecule: Radixin, endogenous in primary mouse hepatocytes (from UniProt P26043 1-583)

- binding [6]: binds
B1: Prom1-Flag (full-length human Prom1) (protein, UniProt O43490 20-865)
chain: GGQPSSTDAPKAWNYELPATNYETQDSHKAGPIGILFELVHIFLYVVQPRDFPEDTLRKFLQKAYESKIDYDKPETVILGLKIVYYEAGIILCCVLGLLFIILMPLVGYFFCMCRCCNKCGGEMHQRQKENGPFLRKCFAISLLVICIIISIGIFYGFVANHQVRTRIKRSRKLADSNFKDLRTLLNETPEQIKYILAQYNTTKDKAFTDLNSINSVLGGGILDRLRPNIIPVLDEIKSMATAIKETKEALENMNSTLKSLHQQSTQLSSSLTSVKTSLRSSLNDPLCLVHPSSETCNSIRLSLSQLNSNPELRQLPPVDAELDNVNNVLRTDLDGLVQQGYQSLNDIPDRVQRQTTTVVAGIKRVLNSIGSDIDNVTQRLPIQDILSAFSVYVNNTESYIHRNLPTLEEYDSYWWLGGLVICSLLTLIVIFYYLGLLCGVCGYDRHATPTTRGCVSNTGGVFLMVGVGLSFLFCWILMIIVVLTFVFGANVEKLICEPYTSKELFRVLDTPYLLNEDWEYYLSGKLFNKSKMKLTFEQVYSDCKKNRGTYGTLHLQNSFNISEHLNINEHTGSISSELESLKVNLNIFLLGAAGRKNLQDFAACGIDRMNYDSYLAQTGKSPAGVNLLSFAYDLEAKANSLPPGNLRNSLKRDAQTIKTIHQQRVLPIEQSLSTLYQSVKILQRTGNGLLERVTRILASLDFAQNFITNNTSSVIIEETKKYGRTIIGYFEHYLQWIEFSISEKVASCKPVATALDTAVDVFLCSYIIDPLNLFWFGIGKATVFLLPALIFAVKLAKYYRRMDSEDVYDDVETIPMKNMENGNNGYHKDHVYGIHNPVMTSPSQH
